The values below come from PubChem BioAssay AID445 (National Center for Advancing Translational Sciences (NCATS), 2006).

This is one part of the list. These are further read-outs of the screen, such as a control signal, another cell line or another target. No call is given for them. Most of these compounds were active or inconclusive in the main read-out, so they are no random draw. The note in brackets gives the kind of curve behind each potency; many fits are weak.

A short description of the test: IkB Signaling. As to conditions: ABC-DLBCL IkBa-CBG/CBR dual luciferase ratio (green luciferase fused to IkBa over red control in OCI-Ly3 lymphoma cells), 4 h. The method, boiled down:
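In this assay, an IκBα–CBG68 fusion accumulates when IKK-driven degradation is blocked; native CBR normalizes for cell number. OCI-Ly3 cells were treated 4 h with compound and doxycycline, then green and red light read after Chroma-Glo addition.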

Setting [1] is: measured here: control luc red channel unless noted.
Setting [2] is: measured here: IkB-luc green channel.
The mark [3] stands for this setting: measured here: control luc red channel.

For orientation: AC50 means the midpoint of the concentration-response curve, whichever way the signal moves. As for `COc1ccc(NC(=O)Cn2ccn(-c3ccccc3)c(=O)c2=O)cc1`, the AC50 under setting [1] is 31.6 µM [falling, single point]. Take `Cc1ccc(-c2nc3cccnc3s2)cc1NC(=O)Cc1ccccc1`: the AC50 under setting [1] was 12.6 µM [falling, partial curve].

Take `COc1ccccc1Nc1ncnc2c1nc1n2CCCC1`: the concentration at half-maximal activity (AC50) under setting [1] was 3.98 µM [rising, full curve]. Turning to `Cc1ccc(-n2nc(C)c3c(C(=O)Nc4ccc(Br)c(C)c4)cc(C)nc32)cc1`, under setting [1], the AC50 is 31.6 µM [falling, partial curve]. The same measure, in the same setting: then `COc1ccc(CCC(=O)NCc2ccc3c(c2)CCN3C(=O)c2ccc(C)cc2)cc1`, with 31.6 µM [falling, partial curve]. For the compound `CSc1nnc(Cc2cc(=O)[nH]c(=O)[nH]2)n1-c1cccc(C)c1`, the AC50 under setting [1] is 12.6 µM [falling, partial curve]. In the case of `O=C(O)CCCCCN1C(=O)CSC1=S`, the concentration at half-maximal activity (AC50) under setting [1] is 1 µM [falling, partial curve]. `O=C(Nc1nnc(S(=O)(=O)N2CCOCC2)s1)c1ccc(F)cc1`: the AC50 under setting [1] was 3.16 µM [falling, partial curve]. Consider `N#Cc1cccc(NC(=O)c2ccc3c(c2)N(Cc2cccc(Cl)c2)C(=O)c2ccccc2S3(=O)=O)c1`, for which, under setting [1], the AC50 is 10 µM [falling, partial curve]. Take `O=C(c1ccc(F)cc1F)N1CCC(c2noc(-c3ccc(S(=O)(=O)N4CCCC4)cc3)n2)CC1`: the AC50 under setting [1] is 39.8 µM [falling, single point]. Take `COc1ccc(C[C@@H]2C(=O)N[C@H](C)C(=O)N(C)[C@@H]3Cc4ccc(cc4)Oc4cc(ccc4O)C[C@H](C(=O)N[C@@H](C)C(=O)N[C@H](C)C(=O)N2C)N(C)C3=O)cc1`: under setting [1], the AC50 was 0.0631 µM [falling, full curve]. On the same count and under the same terms, in the case of `Cc1ccccc1-c1noc(-c2ccccc2OCC(=O)Nc2ccccc2[N+](=O)[O-])n1` it was 12.6 µM [falling, partial curve].

As for `NC(=O)SCC(=O)Nc1ccc(Cl)c(Cl)c1`, the half-maximal activity concentration (AC50) reads like this: under setting [2], 39.8 µM [rising, single point]; under setting [3], 7.94 µM [falling, partial curve].

As to `CCc1ccc(NC(=O)CN(Cc2ccccc2)S(=O)(=O)c2ccc3nc(C)sc3c2)cc1`, the AC50 under setting [1] is 10 µM [falling, partial curve].

Take `Cn1c(=O)oc2cc(S(=O)(=O)Nc3ccc(O)cc3)ccc21`: the AC50 under setting [1] is 25.1 µM [falling, partial curve]. `O=C1c2oc3ccc(Cl)cc3c(=O)c2C(c2cccc(Br)c2)N1CCO` (stereo not drawn): under setting [1], the AC50 is 7.94 µM [falling, partial curve]. As to `O=C(Nc1ccccc1C(F)(F)F)N1CCN(c2ccc3nnc(-c4ccc(F)cc4)n3n2)CC1`, the AC50 under setting [1] is 25.1 µM [falling, single point]. Consider `O=C(CCn1cnc2onc(-c3ccc(F)cc3)c2c1=O)N1CCN(c2cccc(Cl)c2)CC1`, for which, under setting [1], the AC50 was 12.6 µM [falling, partial curve]. As for `N#Cc1c(NC(=O)CSc2n[nH]c(Cc3ccccc3)n2)oc(-c2ccccc2)c1-c1ccccc1`, the AC50 under setting [1] is 3.98 µM [falling, full curve]. Turning to `CCc1ccc(NC(=O)C(=O)NCC(c2cccnc2)N2CCOCC2)cc1` (stereo not drawn), the AC50 under setting [1] is 20 µM [falling, partial curve]. On to `CCc1ccc(NC(=O)c2cc3c(=O)n(Cc4cccnc4)ccc3nc2C)cc1`, for which the AC50 under setting [1] is 25.1 µM [falling, partial curve, poor fit]. Same read-out and setting: in the case of `Cc1cccc(C(=O)Nc2cccc(OCc3cc(=O)n4c(C)csc4n3)c2)c1` it was 15.8 µM [falling, partial curve]; in that of `O=C(c1cccc(F)c1)N1CCN(C(=O)c2cc(-c3ccc(Cl)cc3Cl)on2)CC1`, 0.316 µM [falling, full curve]; in that of `COc1ccc(NC(=O)Cc2csc(COc3cccc(C)c3)n2)c(OC)c1`, 31.6 µM [falling, single point]. `COc1ccc(Nc2nc(N)nc(CSc3nc4cc(OC)ccc4s3)n2)cc1`: the AC50 under setting [1] is 31.6 µM [falling, single point]. Take `O=C1C(Cl)=C(Sc2nnc3c4ccccc4c4ccccc4c3n2)C(=O)c2ccccc21`: the AC50 under setting [1] is 3.16 µM [falling, partial curve]. With `COc1ccc(-c2noc(CCC(=O)NCc3ccc(OC)cc3OC)n2)cc1`, under setting [1], the AC50 was 25.1 µM [falling, single point]. Consider `O=C(O)c1ccccc1Nc1cccc(C(F)(F)F)c1`, for which the AC50 under setting [1] was 10 µM [falling, partial curve].

As for `CCCN(CCC)CC(O)Cn1cc(/C=C/C(=O)c2ccc(OCC)cc2)c2ccccc21` (stereo not drawn), under setting [1], the AC50 is 25.1 µM [falling, partial curve]. Consider `CC[N+](C)(CC)CCC[n+]1c(-c2ccccc2)c2cc(N)ccc2c2ccc(N)cc21`, for which the AC50 under setting [1] is 12.6 µM [falling, partial curve].

For `COc1ccccc1C1C=C(c2ccc(Cl)cc2)Nc2nc(-c3ccc(Cl)cc3)nn21` (stereo not drawn), the AC50 under setting [1] was 12.6 µM [falling, partial curve]. On to `COc1ccc(Cl)cc1N(C)C(=O)C(=O)Nc1ccc2nc3n(c(=O)c2c1)CCCCC3`, for which, under setting [1], the AC50 was 12.6 µM [falling, single point]. Same read-out and setting: in the case of `O=C1CN(C(=O)OCc2ccccc2)c2ccccc2N1` it was 3.98 µM [falling, partial curve]; in that of `COc1ccc(NC(=O)CSc2nc(-c3ccccc3)nc3c2Cc2c(CO)cnc(C)c2O3)cc1Cl`, 0.316 µM [rising, full curve]; in that of `COc1ccc(CCCO[C@@H](Cn2ccnc2)c2ccc(OC)cc2)cc1`, 39.8 µM [falling, partial curve]. For `Cc1ccc(C)c(N2CCN(C(=O)C(C)n3c(C)c4cnn(-c5ccccc5)c(=O)c4c3C)CC2)c1` (stereo not drawn), the AC50 under setting [1] is 20 µM [falling, partial curve].

`Cc1ccc(CNC(=O)c2c(-c3cccc(Br)c3)noc2C)o1`: the AC50 under setting [1] was 10 µM [falling, full curve, poor fit]. As for `COC(=O)c1ccc(OCC2c3cc(OC)c(OC)cc3CCN2C(=O)c2ccccc2F)cc1` (stereo not drawn), the AC50 under setting [1] was 39.8 µM [falling, single point].

As to `CC(Nc1ccc(-c2nc(-c3ccccn3)no2)cc1[N+](=O)[O-])c1ccccc1` (stereo not drawn), the AC50 under setting [1] is 12.6 µM [falling, partial curve]. On to `CCCCCn1c(=N)n(CC(O)COc2cccc(C)c2)c2ccccc21` (stereo not drawn), for which, under setting [1], the AC50 was 25.1 µM [falling, partial curve]. On the same count and under the same terms, then `CCCc1cc(C(=O)Cc2ccc(C(=O)OCC)o2)c(O)cc1O`, with 25.1 µM [falling, partial curve]; and `COc1ccc(S(=O)(=O)N2CCN(CC(=O)Nc3ccc(C)c(F)c3)CC2)cc1`, with 31.6 µM [falling, partial curve].

Regarding `COc1ccc(S(=O)(=O)c2cnc(SCC(=O)Nc3cc(F)ccc3C)[nH]c2=O)cc1Cl`, the AC50 under setting [1] is 10 µM [falling, partial curve]. On to `CCC1CCCCN1C(=O)c1sc(-n2nc(C)c(Cc3ccccc3)c2C)nc1C` (stereo not drawn), for which the AC50 under setting [1] was 31.6 µM [falling, single point]. For the compound `Cc1ccc(Cl)cc1NC(=O)CN1C(=O)C(C)(C)c2cc(S(=O)(=O)N3CCCCC3)ccc21`, the AC50 under setting [1] was 3.16 µM [rising, single point]. As to `CC(=O)c1cccc(NC(=O)c2cc3c(s2)-c2c(C)cccc2OC3)c1`, under setting [1], the concentration at half-maximal activity (AC50) is 39.8 µM [falling, single point]. In the case of `CCOC(=O)c1c(S(=O)(=O)NCC(=O)NCc2ccccc2)c(C)n(C)c1C`, the half-maximal activity concentration (AC50) under setting [1] is 0.794 µM [rising, partial curve]. Consider `CCOC(=O)c1ccc(OC(=O)c2cn(-c3cccc(OC)c3)c(=O)c3ccccc23)cc1`, for which the AC50 under setting [1] is 5.01 µM [falling, partial curve].

As for `Cc1ccc(Cn2c(=S)[nH]c3ccc(N4CCOCC4)cc3c2=O)o1`, the AC50 is, setting by setting: under setting [2], 3.98 µM [rising, single point]; under setting [3], 39.8 µM [falling, single point].

For `Cc1cccc(Cc2c(C)nc3nc(SCC(=O)NCc4ccco4)nn3c2C)c1`, the AC50 under setting [1] was 10 µM [falling, partial curve]. Take `CCc1ccc2c(c1)NC(c1ccc(OC)cc1)=NC(c1ccncc1)=N2`: the AC50 under setting [1] was 31.6 µM [falling, single point]. On to `COc1cc(/C=C/c2nc(C#N)c(N3CCC(C)CC3)o2)cc(OC)c1OC`, for which the AC50 under setting [1] was 20 µM [falling, single point]. As to `COC(=O)CN1C(=O)CSc2ccc(S(=O)(=O)Nc3cccc(Cl)c3C)cc21`, the AC50 under setting [1] was 31.6 µM [falling, single point]. As for `Nc1c(-c2nc(-c3ccc(F)cc3)cs2)c2ccccn2c1C(=O)c1ccc2c(c1)OCO2`, under setting [1], the AC50 was 6.31 µM [falling, partial curve].

In the case of `Cc1cc(=O)n(CC(=O)N2CCN(c3ccc(F)cc3)CC2)c2c1c(C)nn2C`, the AC50 under setting [1] is 31.6 µM [falling, single point]. Regarding `FC(F)C(F)(F)C(F)(F)C(F)(F)c1cc(-c2ccccc2)n[nH]1`, the AC50 under setting [1] is 20 µM [falling, single point]. On the same count and under the same terms, in the case of `COc1ccc(NCc2cc3ccc(OC)cc3n(CC(=O)Nc3cc(Cl)ccc3C)c2=O)cc1` it was 0.794 µM [falling, full curve]. In the case of `COc1ccc2c(c1)CCc1c(C(=O)N3CCc4ccccc4C3)noc1-2`, the AC50 under setting [1] was 25.1 µM [falling, partial curve]. Turning to `CC(Oc1ccccc1F)C(=O)Nc1ccc(-c2nc3ccccc3s2)cc1` (stereo not drawn), the AC50 under setting [1] is 0.794 µM [rising, full curve]. As to `CCc1cccc(NC(=O)CN(C)S(=O)(=O)c2cccc3cccnc23)c1`, under setting [1], the AC50 was 25.1 µM [falling, single point]. As for `CC1CC(C)CN(C(=O)CSCC(=O)Nc2nc(-c3cccs3)cs2)C1` (stereo not drawn), the half-maximal activity concentration (AC50) under setting [1] is 7.94 µM [falling, partial curve].
